Experimental data as given in publication PMC7917814.

Columns and labels:
[1] = tested on: T1, RslR4 (MarR family) (Streptomyces bottropensis); assay: competition with a labelled probe; settings: 100 nM protein, 10-250x unlabeled rslR4-T4 competes; EMSA: 20 mM Tris-HCl pH 7.9, 100 mM KCl, 10 mM MgCl2, 1 mM EDTA, 1 mM DTT, 12.5% glycerol, 1 ug poly(dI-dC), 4.5 ug BSA, 28 C, 15 min (25 min for RslR3DBD); recombinant protein; residues 1-171; protein details: C-terminal His tag (pET28a); label: 5'-33P; probe letters rebuilt from the primers and the genome
T1 sequence (looked up): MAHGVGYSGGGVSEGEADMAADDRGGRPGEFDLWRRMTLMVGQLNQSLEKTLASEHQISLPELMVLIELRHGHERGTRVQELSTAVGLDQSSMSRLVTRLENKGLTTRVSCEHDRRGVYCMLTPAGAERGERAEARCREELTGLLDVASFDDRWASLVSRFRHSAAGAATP

[2] = tested on: T1, RslR4 (MarR family) (Streptomyces bottropensis); assay: EMSA; settings: EMSA: 20 mM Tris-HCl pH 7.9, 100 mM KCl, 10 mM MgCl2, 1 mM EDTA, 1 mM DTT, 12.5% glycerol, 1 ug poly(dI-dC), 4.5 ug BSA, 28 C, 15 min (25 min for RslR3DBD), recombinant protein, residues 1-171, protein details: C-terminal His tag (pET28a), label: 5'-33P, probe letters rebuilt from the primers and the genome

Measured: binding result

GCATGGTACCTGGAGCGGTCTGCGAGGGGTCGGGTGTCGTATCGGGTGCCGTGGACGATTCGGGAGTTCCGCGTGTCATGCGTACCGCCTGGGGTCGATGCAGTCGGGGACGGGCGCGGAACGACGCCGCGCTCTGTGCGTCCCTCACCCTACGAGTAAATGCAGGCGCCTGCATCTAATTTTCGGACAGATCTCTGTCTGCCTTGCTGATGGCCGGTCCAATGGGGCAGGCTGTGAGGGAAAGCGCTTGAAAAATGCATGCATAGACATGGTTTATGCATGGAGTTGGTTATAGTGGAGGGGGAGTGAGCGAAGGGGAGGCGGACATGGCGGCCGATGACCGTGGAGGGCGTCCCGGTGAGTTCGACCTGTGGCGTCGGATGACGCTGATGGTCGGTCAGCTCAACCAGTCGCTGGAGAAGACGCTCGCGAGCGAGCATCAGATCTCCCTGCCCGAGCTGATGGTGCTGATCGAGCTGCGGCACGGTCACGAACGCGGCACCCGGGTGCAGGAGCTGTCCACCGTCTAGATAGC (double strand) [rslR4-T4 intergenic region]
binds: [1] | [2]; galvaquinone A (no ligand effect), 100 nM protein | [2]; several retarded complexes

Protein sequences can lack the tags named with them. For part of these data: For at least one entry, the source does not settle the construct or the ends of the probe. For part of these data: At least one verdict rests on a figure or table, not on a statement of the authors.
